For 2 molecules, binding results are on record in US20210024645A1 (HANGZHOU SUMGEN BIOTECH, published 2021).

By UniProt entry, the sequences of proteins in these tests, tags left out. Residues count along the entry.
UniProt P28907, residues 43-300: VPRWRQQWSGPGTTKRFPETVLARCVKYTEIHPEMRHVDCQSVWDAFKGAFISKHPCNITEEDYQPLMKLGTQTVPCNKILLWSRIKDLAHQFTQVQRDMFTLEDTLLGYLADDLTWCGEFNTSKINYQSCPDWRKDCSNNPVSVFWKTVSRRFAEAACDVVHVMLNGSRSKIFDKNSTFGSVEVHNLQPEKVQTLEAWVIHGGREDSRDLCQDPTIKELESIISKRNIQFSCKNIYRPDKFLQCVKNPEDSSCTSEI

Substitutions are numbered along the chain they refer to. No constants are given. Whether binding was seen depends on the method and setting. Some results given as binding are weak or reduced against the parent protein; the word gives no strength.

The target in test [1] is CD38 antigen (UniProt P28907). Kind of test: binding curve with axis Absorbance (OD450nm), CD38 antigen.
In test [2] the target is CD38 antigen (UniProt P28907). Nature of the test: method not clearly stated (refers to Example 4; FIG. 9).

B1: SG003M2 (antibody, human IgG1, kappa, V domains shown)
VH: QVQLLESGGGLVQPGGSLKLSCVASGFDFSLYWMNWVRQAPGKGLEWIGKISPNSSTINYSPSLKDKFFISRDNAKNTLYLQMTKVRSEDTALYYCARLYIASGGFDYWGQGTTLTVSS
VL: EIVMTQSPASLSASLGQRATISCRASSSVSSSAYSYVHWYQQKSGQPPKLLIYLASDLQSGVPARFSGSGSGTDFTLTIHPVESEDVATYYCHHSRELPYSFGSGTKLEIKR
In the case of B1, the binding entry in the test with CD38 antigen [1] and with CD38 antigen [2] was “binds” throughout.

B2: SG003M3 (antibody, human IgG1, kappa, V domains shown)
VH: B1 VH with N54D, T57S, I58L, S61T, L64V, Y100W, S103T, F106Y, D107N
VL: B1 VL with S27N, S31T, Y34F, D57N, Q59E, L98V, Y100F, S101T
As for B2, the binding result with CD38 antigen [1] and with CD38 antigen [2] was “binds” each time.
